In article doi:10.1101/2023.12.14.571518 (bioRxiv, 2023):

Biological target: T1, GFP-CDK5RAP2(51-100) (human) (UniProt Q96SN8)
T1 sequence: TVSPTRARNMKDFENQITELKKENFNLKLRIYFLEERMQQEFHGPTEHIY
Test: affinity purification with mass spectrometry

binding	Substance
no binding	NEDD1 (S. scrofa)
binds	Non-erythrocyte spectrin (S. scrofa)

No constants are given. Whether binding was seen depends on the method and setting. In cells and extracts the contact can be indirect. A yes stands for co-enrichment or nearness to the bait. Other partners may have been found. A no says only that the protein was not detected with the bait. Sequences can lack the tags named with a protein.
